Experimental findings from PMC9430589 are described below.

Chains of the proteins cited; added tags and fusions are not shown.
UniProt Q9RVW0: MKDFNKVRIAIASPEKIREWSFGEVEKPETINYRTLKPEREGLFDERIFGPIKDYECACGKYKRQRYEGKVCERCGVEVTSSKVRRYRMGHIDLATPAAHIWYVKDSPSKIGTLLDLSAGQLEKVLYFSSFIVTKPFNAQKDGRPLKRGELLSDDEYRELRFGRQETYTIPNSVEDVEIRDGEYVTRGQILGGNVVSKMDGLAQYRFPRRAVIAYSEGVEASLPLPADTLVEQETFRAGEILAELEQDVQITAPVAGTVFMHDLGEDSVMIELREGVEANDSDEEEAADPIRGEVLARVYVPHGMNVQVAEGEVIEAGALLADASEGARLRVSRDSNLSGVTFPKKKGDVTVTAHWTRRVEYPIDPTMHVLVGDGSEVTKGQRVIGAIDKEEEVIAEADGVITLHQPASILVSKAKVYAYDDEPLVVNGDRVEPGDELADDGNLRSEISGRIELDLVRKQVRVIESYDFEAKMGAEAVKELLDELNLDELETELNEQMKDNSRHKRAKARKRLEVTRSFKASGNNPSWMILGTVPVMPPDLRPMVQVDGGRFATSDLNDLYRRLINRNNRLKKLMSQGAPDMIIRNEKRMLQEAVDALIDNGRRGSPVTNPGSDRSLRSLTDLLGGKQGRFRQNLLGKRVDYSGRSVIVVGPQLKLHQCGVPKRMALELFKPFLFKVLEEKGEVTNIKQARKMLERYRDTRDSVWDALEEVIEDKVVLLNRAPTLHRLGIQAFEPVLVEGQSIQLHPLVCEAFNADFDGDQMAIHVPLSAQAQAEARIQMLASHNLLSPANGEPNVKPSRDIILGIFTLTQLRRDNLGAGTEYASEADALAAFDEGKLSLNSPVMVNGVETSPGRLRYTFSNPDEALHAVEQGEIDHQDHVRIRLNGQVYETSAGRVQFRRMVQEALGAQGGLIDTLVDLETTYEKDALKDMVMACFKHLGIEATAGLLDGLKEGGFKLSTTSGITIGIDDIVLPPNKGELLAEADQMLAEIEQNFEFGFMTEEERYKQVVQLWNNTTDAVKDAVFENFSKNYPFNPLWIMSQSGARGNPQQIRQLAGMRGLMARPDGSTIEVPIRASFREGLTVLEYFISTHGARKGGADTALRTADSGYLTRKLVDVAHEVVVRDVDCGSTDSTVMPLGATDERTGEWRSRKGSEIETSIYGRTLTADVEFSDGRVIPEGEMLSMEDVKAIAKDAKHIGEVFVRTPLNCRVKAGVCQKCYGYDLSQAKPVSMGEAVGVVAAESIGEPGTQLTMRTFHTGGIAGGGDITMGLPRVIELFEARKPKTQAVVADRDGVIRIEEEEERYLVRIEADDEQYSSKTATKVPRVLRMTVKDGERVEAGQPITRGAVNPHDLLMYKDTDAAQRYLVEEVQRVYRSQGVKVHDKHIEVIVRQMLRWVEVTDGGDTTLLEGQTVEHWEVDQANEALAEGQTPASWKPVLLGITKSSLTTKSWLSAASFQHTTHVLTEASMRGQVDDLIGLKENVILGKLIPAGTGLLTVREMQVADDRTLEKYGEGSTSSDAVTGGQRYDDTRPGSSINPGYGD
UniProt Q9RVV9: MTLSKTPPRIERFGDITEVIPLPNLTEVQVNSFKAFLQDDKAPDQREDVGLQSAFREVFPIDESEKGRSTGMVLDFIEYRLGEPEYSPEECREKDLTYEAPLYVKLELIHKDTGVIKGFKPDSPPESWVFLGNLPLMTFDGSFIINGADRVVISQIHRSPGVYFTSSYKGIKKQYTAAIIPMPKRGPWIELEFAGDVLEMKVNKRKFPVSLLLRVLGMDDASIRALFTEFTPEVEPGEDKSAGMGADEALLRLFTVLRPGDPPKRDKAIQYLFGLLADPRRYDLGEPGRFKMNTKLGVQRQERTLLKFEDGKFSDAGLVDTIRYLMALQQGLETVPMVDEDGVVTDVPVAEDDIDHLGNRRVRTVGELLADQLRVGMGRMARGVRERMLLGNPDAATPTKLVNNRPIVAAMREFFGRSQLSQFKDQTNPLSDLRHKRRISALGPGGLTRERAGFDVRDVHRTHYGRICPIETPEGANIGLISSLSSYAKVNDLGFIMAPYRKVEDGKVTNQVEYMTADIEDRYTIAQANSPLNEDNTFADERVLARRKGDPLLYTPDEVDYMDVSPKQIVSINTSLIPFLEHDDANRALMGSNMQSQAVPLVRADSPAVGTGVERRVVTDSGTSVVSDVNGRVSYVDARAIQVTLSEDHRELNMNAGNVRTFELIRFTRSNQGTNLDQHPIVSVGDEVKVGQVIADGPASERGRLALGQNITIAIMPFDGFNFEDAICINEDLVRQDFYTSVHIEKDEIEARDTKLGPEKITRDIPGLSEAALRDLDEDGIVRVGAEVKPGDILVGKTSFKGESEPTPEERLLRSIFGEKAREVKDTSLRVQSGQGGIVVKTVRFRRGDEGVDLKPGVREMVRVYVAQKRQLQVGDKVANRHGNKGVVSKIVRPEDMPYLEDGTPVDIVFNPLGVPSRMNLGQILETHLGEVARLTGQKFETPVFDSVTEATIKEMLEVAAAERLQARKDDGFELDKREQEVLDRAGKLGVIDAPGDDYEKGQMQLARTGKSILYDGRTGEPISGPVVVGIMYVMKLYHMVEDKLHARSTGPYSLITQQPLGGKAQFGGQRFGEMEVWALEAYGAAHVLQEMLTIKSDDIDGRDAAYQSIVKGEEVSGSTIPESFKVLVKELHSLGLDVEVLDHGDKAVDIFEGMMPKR

Like-named read-outs stand apart in the source and are kept apart here. No constants are given. Whether binding was seen depends on the method and setting. In cells and extracts the contact can be indirect. A yes stands for co-enrichment or nearness to the bait. Other partners may have been found. For some of these results: Where a sequence is shown, tags or fusion partners need not be part of it.

Holding throughout (experiment): affinity purification with mass spectrometry; C-terminal His6-tagged bait (PNPase or RhlB) expressed from pRADgro in D. radiodurans R1; cells cross-linked with 1% formaldehyde, sonicated; 500 μg lysate on Ni-NTA magnetic beads, 30 min at room temperature; washed with 20 mM imidazole, 300 mM NaCl, pH 7.4; eluted with 500 mM imidazole; LC-MS/MS; enrichment against a strain expressing only the His6 tag

The target in experiment [1] is T1, C-terminus His6-tagged PNPase (polynucleotide phosphorylase, DR_2063) of D. radiodurans (D. radiodurans) (UniProt Q9RSR1).
T1 sequence: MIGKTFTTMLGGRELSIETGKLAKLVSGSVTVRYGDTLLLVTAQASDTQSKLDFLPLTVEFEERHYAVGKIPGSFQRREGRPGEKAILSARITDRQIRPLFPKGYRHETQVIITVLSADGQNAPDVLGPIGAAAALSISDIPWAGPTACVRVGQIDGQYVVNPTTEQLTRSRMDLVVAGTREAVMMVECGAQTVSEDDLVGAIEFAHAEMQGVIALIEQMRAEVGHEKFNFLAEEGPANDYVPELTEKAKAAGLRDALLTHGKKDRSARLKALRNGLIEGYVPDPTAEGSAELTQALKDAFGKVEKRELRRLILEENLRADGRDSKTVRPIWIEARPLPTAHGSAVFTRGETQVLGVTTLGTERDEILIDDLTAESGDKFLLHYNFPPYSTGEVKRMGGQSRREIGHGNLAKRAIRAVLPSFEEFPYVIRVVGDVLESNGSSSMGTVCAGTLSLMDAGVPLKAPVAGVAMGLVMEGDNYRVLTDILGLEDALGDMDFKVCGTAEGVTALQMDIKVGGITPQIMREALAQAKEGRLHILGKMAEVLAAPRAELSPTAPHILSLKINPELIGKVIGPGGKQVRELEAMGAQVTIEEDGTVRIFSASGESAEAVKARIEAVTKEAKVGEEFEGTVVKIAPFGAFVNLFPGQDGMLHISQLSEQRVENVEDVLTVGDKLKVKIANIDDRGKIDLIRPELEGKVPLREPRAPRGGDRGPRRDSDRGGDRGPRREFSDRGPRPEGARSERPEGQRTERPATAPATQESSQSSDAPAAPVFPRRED

For experiment [2], the target named is T1, C-terminus His6-tagged PNPase (polynucleotide phosphorylase, DR_2063) of D. radiodurans (D. radiodurans). This is another data set of the same source.
In experiment [3] the target is C-terminus His6-tagged RhlB (DEAD box RNA helicase, DR_0335) of D. radiodurans (D. radiodurans).

As to “DNA-directed RNA polymerase subunit RpoC, endogenous (from UniProt Q9RVW0 1-1546)”, the binding entry in experiment [1] is “binds”.
With “DNA-directed RNA polymerase subunit RpoB, endogenous (from UniProt Q9RVV9 1-1159)”, the binding result in experiment [1] is recorded as “binds”.

B1: RecA, endogenous (protein, UniProt P42443 1-363)
chain: MSKDATKEISAPTDAKERSKAIETAMSQIEKAFGKGSIMKLGAESKLDVQVVSTGSLSLDLALGVGGIPRGRITEIYGPESGGKTTLALAIVAQAQKAGGTCAFIDAEHALDPVYARALGVNTDELLVSQPDNGEQALEIMELLVRSGAIDVVVVDSVAALTPRAEIEGDMGDSLPGLQARLMSQALRKLTAILSKTGTAAIFINQVREKIGVMYGNPETTTGGRALKFYASVRLDVRKIGQPTKVGNDAVANTVKIKTVKNKVAAPFKEVELALVYGKGFDQLSDLVGLAADMDIIKKAGSFYSYGDERIGQGKEKTIAYIAERPEMEQEIRDRVMAAIRAGNAGEAPALAPAPAAPEAAEA
Regarding B1, the binding result in experiment [2] is reported as “binds”.

B2: RNase J (DR_2417/Rnj), endogenous (enzyme, UniProt H9CZL7 1-559)
chain: MTRPEQPRPESADLPAPTLEVIPLGGMGEIGKNITVFRYGDEIVVVDGGLAFPKAHQMGIDLIVPRIDYLLEHQDKIKGWILTHGHEDHIGGLPYIFARLPRVPVYGLPLTLALVREKLSEFGLQDVDLREVTYGDEVRFGQSFVAEFFCMTHSIPDNAGYILKTPVGDVLHTGDFKIDPDVGTGAGIVSDLERVEQAGKDGVLLLISDSTNAERPGHTPSEAEIARNLEEIIKGCRGRVFLTTFASQVYRIQNILDLAHRQGRRVVMEGRSMIKYAQAAQATGHMNPPEPFLTSEEVGELQDQQVLFVCTGSQGQPMAVLGRLAFGTHAKIALRRGDTVILSSNPIPGNEDAVNLIVNRLYEIGVDVVYPPTYRVHASGHASQEELATILNLTRPKFFLPWHGEPRHQINHAKLAQTLPRPPKRTLIAKNGDIVNLGPDEFRVSGTVAAGAVYVDGLGVGDVNDDVLLDRVNLSQEGLLILTAVLHPTPHVEVVARGFARPNRDLELQIRRVALEAVEQGLREKKRLEDVRDDMYGAVRRFTRKATGRNPVLIPMIVD
Turning to B2, the binding result in experiment [2] is on record as “binds”.

B3: Ssb, endogenous (protein, UniProt Q9RY51 1-301)
chain: MARGMNHVYLIGALARDPELRYTGNGMAVFEATVAGEDRVIGNDGRERNLPWYHRVSILGKPAEWQAERNLKGGDAVVVEGTLEYRQWEAPEGGKRSAVNVKALRMEQLGTQPELIQDAGGGVRMSGAMNEVLVLGNVTRDPEIRYTPAGDAVLSLSIAVNENYQDRQGQRQEKVHYIDATLWRDLAENMKELRKGDPVMIMGRLVNEGWTDKDGNKRNSTRVEATRVEALARGAGNANSGYAAATPAAPRTQTASSAARPTSGGYQSQPSRAANTGSRSGGLDIDQGLDDFPPEEDDLPF
As for B3, the binding result in experiment [2] was “binds”.

B4: PNPase (polynucleotide phosphorylase, DR_2063), endogenous (enzyme, UniProt Q9RSR1 1-779)
chain: MIGKTFTTMLGGRELSIETGKLAKLVSGSVTVRYGDTLLLVTAQASDTQSKLDFLPLTVEFEERHYAVGKIPGSFQRREGRPGEKAILSARITDRQIRPLFPKGYRHETQVIITVLSADGQNAPDVLGPIGAAAALSISDIPWAGPTACVRVGQIDGQYVVNPTTEQLTRSRMDLVVAGTREAVMMVECGAQTVSEDDLVGAIEFAHAEMQGVIALIEQMRAEVGHEKFNFLAEEGPANDYVPELTEKAKAAGLRDALLTHGKKDRSARLKALRNGLIEGYVPDPTAEGSAELTQALKDAFGKVEKRELRRLILEENLRADGRDSKTVRPIWIEARPLPTAHGSAVFTRGETQVLGVTTLGTERDEILIDDLTAESGDKFLLHYNFPPYSTGEVKRMGGQSRREIGHGNLAKRAIRAVLPSFEEFPYVIRVVGDVLESNGSSSMGTVCAGTLSLMDAGVPLKAPVAGVAMGLVMEGDNYRVLTDILGLEDALGDMDFKVCGTAEGVTALQMDIKVGGITPQIMREALAQAKEGRLHILGKMAEVLAAPRAELSPTAPHILSLKINPELIGKVIGPGGKQVRELEAMGAQVTIEEDGTVRIFSASGESAEAVKARIEAVTKEAKVGEEFEGTVVKIAPFGAFVNLFPGQDGMLHISQLSEQRVENVEDVLTVGDKLKVKIANIDDRGKIDLIRPELEGKVPLREPRAPRGGDRGPRRDSDRGGDRGPRREFSDRGPRPEGARSERPEGQRTERPATAPATQESSQSSDAPAAPVFPRRED
B4: the binding entry in experiment [3] was “binds”.

B5: DNA-directed RNA polymerase subunit RpoA, endogenous (protein, UniProt Q9RSJ6 1-341)
chain: MEQKRPQLKARVDGDYGEFVLEPLARGYGVTIGNPIRRILMSSIPGTAVTSVYIEDVLHEFSTIPGVREDVIRLILNLKELVVKFHAPGPKTLTLRAQGEGEVRASAFEVPTDAEIVNPDLVIANLAEDGKLVMEVRVEEGEGYVSADKHATKDRINSIPVDAMFSPVRRVAYHVENTRVGQQTDLDRLILRVWTDGSAGPQEALDKAVEILRDELSVFGNVEPMPALESSYAAATPAAVYDPATATLPASVYDSPRQPDLGSLSINPQPFPTDQDTPRVTLEGLGLTTRVLHSLKEEGIDSVDALCALSDRDLKKVPGIGERSLDEIKQQLAQFGLALRD
Consider B5, for which the binding entry in experiment [2] was “binds”.
